Assay results as given in the supplement of paper PMC4604168 (melanoma cell lines).
The list shows a part of the results. Single values are uncertain, as repeats are few or missing.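 Cells were imaged in 1,536-well plates, and nuclei stained with an antibody against cleaved PARP were counted against all DNA-stained nuclei to give the apoptosis fraction. Screening doses were chosen to leave most cells alive, and resting and induced cleaved-PARP levels differ strongly between cell lines.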

The molecules below were run on MeWo (assay: cleaved PARP positive nuclei fraction relative to DMSO control; melanoma cells; higher = more apoptosis). Conditions: library dose: low library concentration; 72 h.

| Compound | cleaved PARP positive nuclei fraction [%] |
| --- | --- |
| COc1ccc(C2=N[C@@H](c3ccc(Cl)cc3)[C@@H](c3ccc(Cl)cc3)N2C(=O)N2CCNC(=O)C2)c(OC(C)C)c1 [Nutlin-3] + COc1ccc2c(c1)CCC1C2CCC2(C)C(NCCCCCCN3C(=O)C=CC3=O)CCC12 [U73122] (first compound 0.1 µM, partner dose 0.4 µM) | 82.6 |
| CS(=O)(=O)c1ccc(C(=O)Nc2ccc(Cl)c(-c3ccccn3)c2)c(Cl)c1 [vismodegib] + Cc1cc(N2CCOCC2)cc2[nH]c(-c3c(NC[C@@H](O)c4cccc(Cl)c4)cc[nH]c3=O)nc12 [BMS536924] (first compound 1 µM, partner dose 0.2 µM) | 110 |
| CC1(C)CCC(c2ccc(Cl)cc2)=C(CN2CCN(c3ccc(C(=O)NS(=O)(=O)c4ccc(N[C@H](CCN5CCOCC5)CSc5ccccc5)c(S(=O)(=O)C(F)(F)F)c4)cc3)CC2)C1 + Cc1cc(N2CCOCC2)cc2[nH]c(-c3c(NC[C@@H](O)c4cccc(Cl)c4)cc[nH]c3=O)nc12 [BMS536924] (first compound 0.4 µM, partner dose 0.2 µM) | 360 |
| CC(=O)O[C@@]12CO[C@@H]1C[C@H](O)[C@@]1(C)C(=O)[C@H](O)C3=C(C)[C@@H](OC(=O)[C@H](O)[C@@H](NC(=O)OC(C)(C)C)c4ccccc4)C[C@@](O)([C@@H](OC(=O)c4ccccc4)[C@H]21)C3(C)C [Docetaxel] + Cc1ccc(NC(=O)c2cccc(N(C)C)c2)cc1NC(=O)c1ccc(O)cc1 [ZM336372] (first compound 0.0001 µM, partner dose 2 µM) | 256 |
| C[C@@H](N)c1ccc(C(=O)Nc2ccnc3[nH]ccc23)cc1 + COc1cc(N2CCC(N3CCN(C)CC3)CC2)ccc1Nc1ncc(Cl)c(Nc2ccccc2S(=O)(=O)C(C)C)n1 [NVP-TAE684] (first compound 0.4 µM, partner dose 0.08 µM) | 97.7 |
| CCN(CC)CCNC(=O)c1c(C)[nH]c(/C=C2\C(=O)Nc3ccc(F)cc32)c1C [sunitinib] + O=c1cc(-c2cccc3c2Sc2ccccc2S3)oc(N2CCOCC2)c1 [KU55933] (first compound 0.4 µM, partner dose 1 µM) | 128 |
| C[C@]1(O)C[C@@H](c2nc(-c3ccc4ccc(-c5ccccc5)nc4c3)c3c(N)nccn32)C1 + O=C(Nc1ccccc1)c1cc([N+](=O)[O-])ccc1Cl [GW9662] (first compound 0.4 µM, partner dose 2 µM) | 50.3 |
| CCCCCCCCc1ccc(CCC(N)(CO)CO)cc1 [fingolimod] + NCC(=O)Nc1ccc(-n2nc(C(F)(F)F)cc2-c2ccc3c(ccc4ccccc43)c2)cc1 [OSU03012] (first compound 2 µM, partner dose 1 µM) | 273 |
| CC1(C)CCC(c2ccc(Cl)cc2)=C(CN2CCN(c3ccc(C(=O)NS(=O)(=O)c4ccc(N[C@H](CCN5CCOCC5)CSc5ccccc5)c(S(=O)(=O)C(F)(F)F)c4)cc3)CC2)C1 + CO[C@@H]1[C@H](N(C)C(=O)c2ccccc2)C[C@H]2O[C@]1(C)n1c3ccccc3c3c4c(c5c6ccccc6n2c5c31)C(=O)NC4 [Midostaurin] (first compound 0.4 µM, partner dose 0.08 µM) | 593 |
| C[C@]1(O)C[C@@H](c2nc(-c3ccc4ccc(-c5ccccc5)nc4c3)c3c(N)nccn32)C1 + Cc1cc([N+](=O)[O-])ccc1NS(=O)(=O)c1cc(Cl)ccc1Cl [FH535] (first compound 0.4 µM, partner dose 1 µM) | 89.9 |

Reformatted: entries from further up.
Compound	cleaved PARP positive nuclei fraction [%]
COc1ccc(C2=N[C@@H](c3ccc(Cl)cc3)[C@@H](c3ccc(Cl)cc3)N2C(=O)N2CCNC(=O)C2)c(OC(C)C)c1 [Nutlin-3] + COc1ccc2c(c1)CCC1C2CCC2(C)C(NCCCCCCN3C(=O)C=CC3=O)CCC12 [U73122] (first compound 0.1 µM, partner dose 0.4 µM)	82.6
CC1(C)CCC(c2ccc(Cl)cc2)=C(CN2CCN(c3ccc(C(=O)NS(=O)(=O)c4ccc(N[C@H](CCN5CCOCC5)CSc5ccccc5)c(S(=O)(=O)C(F)(F)F)c4)cc3)CC2)C1 + Cc1cc(N2CCOCC2)cc2[nH]c(-c3c(NC[C@@H](O)c4cccc(Cl)c4)cc[nH]c3=O)nc12 [BMS536924] (first compound 0.4 µM, partner dose 0.2 µM)	360
C[C@@H](N)c1ccc(C(=O)Nc2ccnc3[nH]ccc23)cc1 + COc1cc(N2CCC(N3CCN(C)CC3)CC2)ccc1Nc1ncc(Cl)c(Nc2ccccc2S(=O)(=O)C(C)C)n1 [NVP-TAE684] (first compound 0.4 µM, partner dose 0.08 µM)	97.7
CCN(CC)CCNC(=O)c1c(C)[nH]c(/C=C2\C(=O)Nc3ccc(F)cc32)c1C [sunitinib] + O=c1cc(-c2cccc3c2Sc2ccccc2S3)oc(N2CCOCC2)c1 [KU55933] (first compound 0.4 µM, partner dose 1 µM)	128
CCCCCCCCc1ccc(CCC(N)(CO)CO)cc1 [fingolimod] + NCC(=O)Nc1ccc(-n2nc(C(F)(F)F)cc2-c2ccc3c(ccc4ccccc43)c2)cc1 [OSU03012] (first compound 2 µM, partner dose 1 µM)	273

These molecules were tested on RPMI7951 in the same assay as above. Conditions: library dose: low library concentration; 72 h.

| Compound | cleaved PARP positive nuclei fraction [%] |
| --- | --- |
| C[C@@H](N)c1ccc(C(=O)Nc2ccnc3[nH]ccc23)cc1 + Cc1cc([N+](=O)[O-])ccc1NS(=O)(=O)c1cc(Cl)ccc1Cl [FH535] (first compound 0.4 µM, partner dose 1 µM) | 106 |
| CS(=O)(=O)c1ccc(C(=O)Nc2ccc(Cl)c(-c3ccccn3)c2)c(Cl)c1 [vismodegib] + O=S(=O)(c1ccccc1)N(CC(F)(F)F)c1ccc(C(O)(C(F)(F)F)C(F)(F)F)cc1 [T0901317] (first compound 1 µM, partner dose 1.4 µM) | 20.5 |
| CCN(CC)CCNC(=O)c1c(C)[nH]c(/C=C2\C(=O)Nc3ccc(F)cc32)c1C [sunitinib] + COc1cc(N2CCC(N3CCN(C)CC3)CC2)ccc1Nc1ncc(Cl)c(Nc2ccccc2S(=O)(=O)C(C)C)n1 [NVP-TAE684] (first compound 0.4 µM, partner dose 0.08 µM) | 38.6 |
| CC1(C)CCC(c2ccc(Cl)cc2)=C(CN2CCN(c3ccc(C(=O)NS(=O)(=O)c4ccc(N[C@H](CCN5CCOCC5)CSc5ccccc5)c(S(=O)(=O)C(F)(F)F)c4)cc3)CC2)C1 + CC(C)CCN1c2nc(Nc3cc(F)c(O)c(F)c3)ncc2N(C)C(=O)C1C [BID1870] (first compound 0.4 µM, partner dose 0.2 µM) | 293 |
| C[C@@H](N)c1ccc(C(=O)Nc2ccnc3[nH]ccc23)cc1 + CN(NC(=O)CC(=O)NN(C)C(=S)c1ccccc1)C(=S)c1ccccc1 [STA4783] (first compound 0.4 µM, partner dose 0.006 µM) | 60.6 |
| NC1(c2ccc(-c3nc4ccn5c(=O)[nH]nc5c4cc3-c3ccccc3)cc2)CCC1 + COc1cc(N2CCC(N3CCN(C)CC3)CC2)ccc1Nc1ncc(Cl)c(Nc2ccccc2S(=O)(=O)C(C)C)n1 [NVP-TAE684] (first compound 0.4 µM, partner dose 0.08 µM) | 28.4 |
| NC(=O)c1ccc(N(C(N)=O)c2c(F)cccc2F)nc1-c1ccc(F)cc1F + CCCCCCCCCCCC1=C(O)C(=O)C=C(O)C1=O [Embelin] (first compound 0.4 µM, partner dose 1.2 µM) | 139 |
| CS(=O)(=O)c1ccc(C(=O)Nc2ccc(Cl)c(-c3ccccn3)c2)c(Cl)c1 [vismodegib] + NCC(=O)Nc1ccc(-n2nc(C(F)(F)F)cc2-c2ccc3c(ccc4ccccc43)c2)cc1 [OSU03012] (first compound 1 µM, partner dose 1 µM) | 94.4 |
| NC1(c2ccc(-c3nc4ccn5c(=O)[nH]nc5c4cc3-c3ccccc3)cc2)CCC1 + O=S(=O)(c1ccccc1)N(CC(F)(F)F)c1ccc(C(O)(C(F)(F)F)C(F)(F)F)cc1 [T0901317] (first compound 0.4 µM, partner dose 1.4 µM) | 33 |
| NC(=O)c1ccc(N(C(N)=O)c2c(F)cccc2F)nc1-c1ccc(F)cc1F + CC(C)(C)c1cnc(CSc2cnc(NC(=O)C3CCNCC3)s2)o1 [SNS-032] (first compound 0.4 µM, partner dose 0.01 µM) | 34.1 |
| NC(=O)c1ccc(N(C(N)=O)c2c(F)cccc2F)nc1-c1ccc(F)cc1F + CO[C@@H]1[C@H](N(C)C(=O)c2ccccc2)C[C@H]2O[C@]1(C)n1c3ccccc3c3c4c(c5c6ccccc6n2c5c31)C(=O)NC4 [Midostaurin] (first compound 0.4 µM, partner dose 0.08 µM) | 47.1 |
| Cn1cnc2c(F)c(Nc3ccc(Br)cc3Cl)c(C(=O)NOCCO)cc21 [selumetinib] + COc1cc2c(Oc3ccc4[nH]c(C)cc4c3F)ncnc2cc1OCCCN1CCCC1 [cediranib] (first compound 0.015 µM, partner dose 0.4 µM) | 94.9 |
| C[C@]1(O)C[C@@H](c2nc(-c3ccc4ccc(-c5ccccc5)nc4c3)c3c(N)nccn32)C1 + c1cc(-c2cnn3cc(-c4ccc(OCCN5CCCCC5)cc4)cnc23)ccn1 [Dorsomorphin] (first compound 0.4 µM, partner dose 0.4 µM) | 202 |
| CC1(C)CCC(c2ccc(Cl)cc2)=C(CN2CCN(c3ccc(C(=O)NS(=O)(=O)c4ccc(N[C@H](CCN5CCOCC5)CSc5ccccc5)c(S(=O)(=O)C(F)(F)F)c4)cc3)CC2)C1 + NCC(=O)Nc1ccc(-n2nc(C(F)(F)F)cc2-c2ccc3c(ccc4ccccc43)c2)cc1 [OSU03012] (first compound 0.4 µM, partner dose 1 µM) | 66.4 |
| CN(c1ncccc1CNc1nc(Nc2ccc3c(c2)CC(=O)N3)ncc1C(F)(F)F)S(C)(=O)=O + O=C(O)c1ccc(-c2c[nH]c3ncc(-c4ccccc4)cc23)cc1C1CCCC1 [GSK650394] (first compound 0.08 µM, partner dose 0.16 µM) | 295 |
| NC(=O)c1ccc(N(C(N)=O)c2c(F)cccc2F)nc1-c1ccc(F)cc1F + COc1ccc(-c2ccc3c(N4CCOCC4)nc(N4C[C@@H](C)O[C@@H](C)C4)nc3n2)cc1CO [KU0063794] (first compound 0.4 µM, partner dose 0.02 µM) | 76.8 |
| NC1(c2ccc(-c3nc4ccn5c(=O)[nH]nc5c4cc3-c3ccccc3)cc2)CCC1 + CCCCCCCCCCCC1=C(O)C(=O)C=C(O)C1=O [Embelin] (first compound 0.4 µM, partner dose 1.2 µM) | 131 |
| NC(=O)c1ccc(N(C(N)=O)c2c(F)cccc2F)nc1-c1ccc(F)cc1F + CC1(C)NC(=O)N(c2ccc([N+](=O)[O-])c(C(F)(F)F)c2)C1=O [nilutamide] (first compound 0.4 µM, partner dose 1 µM) | 180 |
| COc1ccc(C2=N[C@@H](c3ccc(Cl)cc3)[C@@H](c3ccc(Cl)cc3)N2C(=O)N2CCNC(=O)C2)c(OC(C)C)c1 [Nutlin-3] + Cn1cncc1[C@@](N)(c1ccc(Cl)cc1)c1ccc2c(c1)c(-c1cccc(Cl)c1)cc(=O)n2C [tipifarnib] (first compound 0.1 µM, partner dose 0.01 µM) | 35 |
